Data taken from PubChem BioAssay AID328 (DTP/NCI, 2004).
The list shows only some results of the screen, not a fair sample: it gathers tests that were run many times, whatever their T/C, doses with no T/C, and many T/C values between a quarter and a half above the control. Further doses and runs are listed elsewhere. T/C gives the treated animals as a percentage of the vehicle group. Some doses have a count of surviving animals in place of a T/C: the source files T/C as zero there, which appears to mark a toxic dose or a test without result, not a measured value. Some doses without a T/C left all or most animals alive at the check, yet need not have been tolerated: survival well below the control is almost never listed, so the zero probably covers shortened survival too. Counts of survivors are from the toxicity check (mostly the fifth day) where no day follows; animals may have died later. Schedules are NCI's codes, taken here to give the interval after Q, in days (D) or hours (H), and the number of doses after X. Where survival is the endpoint, this PubChem deposit counts one and a half times the control or more as active, and values a quarter to a half above the control carry no call in these data; other NCI protocols may use other cut-offs. Some T/C values are followed by the survivors on the day toxicity was checked, most often the fifth; where none is given, no animal had died by that day. Some entries were tested several times; their values stand side by side, smallest first. Positions of bridges follow the written chain, without caps; N, C: chain ends. Non-standard residues stand in square brackets, D forms with d. Residues, ends and D or L forms follow the SMILES beside them. Pip(4-oxo) = O=C1CCN[CH](C(=O)O)C1; NMeV = CN[CH](C(=O)O)C(C)C; Sar = CNCC(=O)O

Test system: BDF1 mice, P388 leukemia ip, median survival T/C
Experiment: NCI In Vivo Anticancer Drug Screen. Data for tumor model P388 Leukemia (intraperitoneal) in B6D2F1 (BDF1) mice
Details: T/C endpoint: median survival time, higher T/C = longer survival
How it was run: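 Mice carrying the transplantable tumour receive compound or vehicle. Survival is followed in each arm, and the treated measure is divided by the vehicle measure.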

[1] = dose: 900.0 micrograms/kg/injection, schedule: Q04DX003 (ip), vehicle: saline + alcohol
[2] = dose: 4.0 mg/kg/injection, schedule: Q01DX009 (ip), vehicle: Klucel (hydroxypropylcellulose) (HPC)
[3] = dose: 50.0 mg/kg/injection, schedule: Q01DX009 (ip), vehicle: saline
[4] = dose: 50.0 mg/kg/injection, schedule: Q01DX009 (ip), vehicle: saline with Tween-80
[5] = dose: 200.0 mg/kg/injection, schedule: Q01DX009 (ip), vehicle: saline with Tween-80
[6] = dose: 200.0 mg/kg/injection, schedule: Q04DX003 (ip), vehicle: saline with Tween-80
[7] = dose: 400.0 mg/kg/injection, schedule: Q04DX003 (ip), vehicle: saline with Tween-80
[8] = dose: 100.0 mg/kg/injection, schedule: Q01DX009 (ip), vehicle: saline
[9] = dose: 200.0 mg/kg/injection, schedule: Q01DX009 (ip), vehicle: saline
[10] = dose: 75.0 mg/kg/injection, schedule: Q01DX009 (ip), vehicle: saline with Tween-80
[11] = dose: 25.0 mg/kg/injection, schedule: Q01DX009 (ip), vehicle: saline with Tween-80
[12] = dose: 100.0 mg/kg/injection, schedule: Q01DX009 (ip), vehicle: saline with Tween-80

CC(C)C1NC(=O)C(N)C(C)OC(=O)C(C(C)C)N(C)C(=O)CN(C)C(=O)C2CC(=O)CCN2C1=O (centres undefined) (tested in a mixture with another compound) (H-TV[Pip(4-oxo)][Sar][NMeV]; ester 1-C; configuration not given here)
T/C (dose: 200.0 micrograms/kg/injection, schedule: Q01DX009 (ip), vehicle: saline + alcohol): 135 % of control | T/C (dose: 450.0 micrograms/kg/injection, schedule: Q04DX003 (ip), vehicle: saline + alcohol): 132 and 139 % of control | T/C [1]: 141 % of control | survivor count [1]: 8 of 8

CC[CH2][Sn]([Cl])([Cl])[CH2]CC
T/C (dose: 1.0 mg/kg/injection, schedule: Q01DX009 (ip), vehicle: Klucel (hydroxypropylcellulose) (HPC)): 136 % of control | T/C (dose: 2.0 mg/kg/injection, schedule: Q01DX009 (ip), vehicle: Klucel (hydroxypropylcellulose) (HPC)): 131 % of control [5 of 6 alive] | T/C [2]: 131 % of control | survivor count [2]: 0 of 6 | survivor count (dose: 8.0 mg/kg/injection, schedule: Q01DX009 (ip), vehicle: Klucel (hydroxypropylcellulose) (HPC)): 0 of 6

COC12C(COC(=O)NCCO)C3=C(C(=O)C(C)=C(N)C3=O)N1CC1NC12 (centres undefined)
survivor count [3]: 6 of 6

CC(C)=CCC/C(C)=C\CCl
T/C [4]: 125 % of control | T/C (dose: 150.0 mg/kg/injection, schedule: Q01DX009 (ip), vehicle: saline with Tween-80): 128 % of control | survivor count [5]: 2 of 6 | survivor count [6]: 6 of 6 | survivor count [7]: 4 of 6

O=CN1CCCC1C(=O)O (centres undefined)
survivor count (dose: 100.0 mg/kg/injection, schedule: Q01DX009 (ip), vehicle: water): 6 of 6

Cc1ccc(-c2nc3sccn3c2/C=N/NC(N)=S)cc1
survivor count (dose: 200.0 mg/kg/injection, schedule: Q01DX001 (ip), vehicle: Klucel (hydroxypropylcellulose) (HPC)): 6 of 6

O=C1NC(Cc2ccc(N(CCCl)CCCl)cc2)C(=O)O1 (centres undefined)
T/C (dose: 0.03 mg/kg/injection, schedule: Q01DX009 (ip), vehicle: saline with Tween-80): 129 % of control | T/C (dose: 0.12 mg/kg/injection, schedule: Q01DX009 (ip), vehicle: saline with Tween-80): 125 % of control | T/C (dose: 0.5 mg/kg/injection, schedule: Q01DX009 (ip), vehicle: saline with Tween-80): 146 % of control | T/C (dose: 0.5 mg/kg/injection, schedule: Q04DX003 (ip), vehicle: saline with Tween-80): 131 % of control | T/C (dose: 0.8 mg/kg/injection, schedule: Q04DX003 (ip), vehicle: saline with Tween-80): 133 % of control | T/C (dose: 1.0 mg/kg/injection, schedule: Q01DX009 (ip), vehicle: saline with Tween-80): 146 % of control | T/C (dose: 12.0 mg/kg/injection, schedule: Q04DX003 (ip), vehicle: saline with Tween-80): 154, 230, 250, 272 % of control | survivor count (dose: 18.0 mg/kg/injection, schedule: Q01DX009 (ip), vehicle: saline with Tween-80): 6 of 6 | T/C (dose: 18.0 mg/kg/injection, schedule: Q04DX003 (ip), vehicle: saline with Tween-80): 100 [5 of 6 alive], 230, 250, 272 % of control | survivor count (dose: 90.0 mg/kg/injection, schedule: Q04DX003 (ip), vehicle: saline with Tween-80): 6 of 6

CC(=O)OCc1c(COC(C)=O)c(-c2ccc(Cl)c(Cl)c2)n2c1CCC2
T/C (dose: 25.0 mg/kg/injection, schedule: Q01DX009 (ip), vehicle: Klucel (hydroxypropylcellulose) (HPC)): 125 % of control | T/C (dose: 50.0 mg/kg/injection, schedule: Q01DX009 (ip), vehicle: Klucel (hydroxypropylcellulose) (HPC)): 129 % of control

OCCNCCNCC[OH2+].OCCNCCNCC[OH2+].[Ni+2].[O-][Cl+3]([O-])([O-])[O-]
survivor count [8]: 4 of 6 | survivor count [9]: 0 of 6

CC([OH2+])CNCCN.CC([OH2+])CNCCN.[Ni+2].[O-][Cl+3]([O-])([O-])[O-] (centres undefined)
survivor count [3]: 6 of 6 | survivor count [8]: 3 of 6 | survivor count [9]: 0 of 6

CC1(C)N=C(N)N=C(N)N1c1ccc(CCc2ccccc2)cc1
survivor count [10]: 0 of 6

[Au].c1ccc(-c2nn[nH]n2)cc1.c1ccc(P(c2ccccc2)c2ccccc2)cc1
T/C (dose: 3.13 mg/kg/injection, schedule: Q01DX009 (ip), vehicle: saline with Tween-80): 126 % of control | T/C (dose: 6.25 mg/kg/injection, schedule: Q01DX009 (ip), vehicle: saline with Tween-80): 125 % of control | T/C (dose: 12.5 mg/kg/injection, schedule: Q01DX009 (ip), vehicle: saline with Tween-80): 126 % of control | T/C [11]: 131 % of control [5 of 6 alive]

CN(C)CCCN1c2ccccc2Sc2ccc(F)cc21
T/C [3]: 136 % of control | survivor count (dose: 100.0 mg/kg/injection, schedule: Q04DX003 (ip), vehicle: saline): 2 of 6 | survivor count (dose: 200.0 mg/kg/injection, schedule: Q04DX003 (ip), vehicle: saline): 1 of 6

O=C(O)c1ccc(C(Cl)(Cl)Cl)cc1
T/C (dose: 37.5 mg/kg/injection, schedule: Q01DX009 (ip), vehicle: Klucel (hydroxypropylcellulose) (HPC)): 126 % of control | T/C (dose: 75.0 mg/kg/injection, schedule: Q01DX009 (ip), vehicle: Klucel (hydroxypropylcellulose) (HPC)): 134 % of control | T/C [10]: 142 % of control | T/C (dose: 112.5 mg/kg/injection, schedule: Q01DX009 (ip), vehicle: saline with Tween-80): 125 % of control | T/C (dose: 150.0 mg/kg/injection, schedule: Q01DX009 (ip), vehicle: Klucel (hydroxypropylcellulose) (HPC)): 135 % of control | survivor count (dose: 300.0 mg/kg/injection, schedule: Q01DX009 (ip), vehicle: saline with Tween-80): 3 of 6

O=C(O)c1ccc([N+](=O)[O-])s1
survivor count [5]: 6 of 6 | survivor count [7]: 5 of 6

CC[C@@H](O)C[C@H]1CCC[C@@]2(C[C@@H]3OC(=O)/C=C/[C@@](C)(O)[C@@H](O)[C@H](C)[C@@H](O)[C@H](OC4CCC(N(C)C)C(C)O4)[C@@H](O)[C@](C)(O)CCCCC/C=C/[C@@H]4CC(C)(C)O[C@@]4(O)C[C@H](O2)[C@H]3C)O1 (some centres undefined)
survivor count (dose: 0.06 mg/kg/injection, schedule: Q01DX009 (ip), vehicle: saline): 5 of 6 | survivor count (dose: 0.12 mg/kg/injection, schedule: Q01DX009 (ip), vehicle: saline): 1 of 6 | survivor count (dose: 0.25 mg/kg/injection, schedule: Q01DX009 (ip), vehicle: saline): 0 of 6 | survivor count (dose: 14.0 mg/kg/injection, schedule: Q04DX003 (ip), vehicle: saline): 0 of 6 | survivor count (dose: 22.0 mg/kg/injection, schedule: Q04DX003 (ip), vehicle: saline): 0 of 6 | survivor count (dose: 35.0 mg/kg/injection, schedule: Q04DX003 (ip), vehicle: saline): 0 of 6

NNc1ncnc2c1ccn2C1OC(CO)C(O)C1O (centres undefined)
T/C (dose: 16.5 mg/kg/injection, schedule: Q01DX009 (ip), vehicle: saline with Tween-80): 140 % of control | T/C [11]: 145 % of control | survivor count [12]: 0 of 6

CCOC(=O)COc1ccc(/C=C(\C)[N+](=O)[O-])c2ccccc12
T/C [12]: 130 % of control | T/C [5]: 135 % of control

CNc1ccc([N+](=O)[O-])cc1C(=O)OC
survivor count [4]: 6 of 6

N=C(N)N1CCNc2ccccc2C1
survivor count [6]: 4 of 6 | survivor count [7]: 1 of 6

Cc1ccc(C2=C(Cl)C(=O)NC2=O)s1
survivor count (dose: 25.0 mg/kg/injection, schedule: Q01DX001 (ip), vehicle: saline with Tween-80): 2 of 6 | survivor count (dose: 50.0 mg/kg/injection, schedule: Q01DX001 (ip), vehicle: saline with Tween-80): 0 of 6

Cc1cccn2c(C)nnc12
survivor count [5]: 0 of 6

O=C(O)CSC(=S)c1ccccc1
T/C [4]: 129 % of control [5 of 6 alive]

Cn1cnc([N+](=O)[O-])c1[Se]c1ncnc2c1c(C#N)cn2C1OC(CO)C(O)C1O (centres undefined)
T/C (dose: 50.0 mg/kg/injection, schedule: Q04DX003 (ip), vehicle: saline): 130 % of control
